Two substances from patent US5059679A (Shin-Etsu CHemical Co., Ltd., priority 1988, dated 1991) can be followed below.

The nature of this data set: general procedure: solution-phase peptide synthesis; azide fragment condensation.

Some peptides are written in HELM: one residue between dots, names in brackets for other building blocks, links after the first $.

For the substance “PEPTIDE1{K.A.P.S.G.R.M.S.I.V.K.N.L.Q.N.L.D.P.S.H.R.I.S.D.R.D.Y.M.G.W.M.D.F.[am]}$$$$V2.0”, the step yield runs as follows: (late stage modification step) 95.4%; (purification step, run 1) 31.1%; (purification step, run 2) 53%.

Take “PEPTIDE1{K.A.P.S.G.R.M.S.I.V.K.N.L.Q.N.L.D.P.S.H.R.I.S.D.R.D.[Tyr(SO3H)].M.G.W.M.D.F.[am]}$$$$V2.0”: the step yield is, setting by setting: (late stage modification step) 63.9%; (late stage modification step, overall) 25.0%; (late stage modification step, overall, based on the unsulfated hCCK-33) 15%; (late stage modification step, overall, based on unsulfated hCCK-33) 13%; (purification step, run 1) 39.1%; (purification step, run 2) 61%.
